This passage reports binding results from patent EP1396498A1, “A pair of polypeptides with specific and strong interaction” (Max-Planck-Gesellschaft zur Förderung der Wissenschaften …, priority 2002, dated 2004).

No constants are given. Whether binding was seen depends on the method and setting. Some entries that bind do so weakly or less than the wild type. Sequences can lack the tags named with a protein.

Test [1] addresses T1, GST-L4 (S. cerevisiae (yeast)).
T1 sequence: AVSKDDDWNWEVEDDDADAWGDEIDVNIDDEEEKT
The test can be described thus: peptide-agarose column with crude E. coli extract holding GST-L4, SDS-PAGE and Coomassie.

Test [2] deals with T2, δ-COP peptide arginine 242 to glycine 254 immobilized on agarose (S. cerevisiae (yeast)).
T2 sequence (peptide, N-terminal cysteine coupled to agarose gel (SulfoLink)): CRAGHSATGGMKLG
The test can be described thus: peptide-agarose column with crude E. coli extract, glycine elution, SDS-PAGE and Coomassie.

Turning to CRAGHSATGGMKLG (N-terminal cysteine coupled to agarose gel (SulfoLink)) [δ-COP peptide arginine 242 to glycine 254 immobilized on agarose], the binding entry in test [1] was “binds”.

As for AVSKDDDWNWEVEDDDADAWGDEIDVNIDDEEEKT (peptide, not shown: a dimerising Fc or GST) [GST-L4], the binding entry in test [2] is listed as “binds”.
